We go through eleven sequences from publication PMC9177983.

Changes are numbered by the printed parent chain. Construct, isoform or probe ends are uncertain for at least one entry. The comparison behind a weaker result is the experiment's own reference, which may not be listed here. For part of these data: At least one verdict was read from the data and is not stated in words by the source. Where a protein sequence is shown, tags need not be part of it.

Series [1] addresses T1, Mfd (Escherichia coli) (UniProt P30958).
T1 sequence (looked up, limits assumed): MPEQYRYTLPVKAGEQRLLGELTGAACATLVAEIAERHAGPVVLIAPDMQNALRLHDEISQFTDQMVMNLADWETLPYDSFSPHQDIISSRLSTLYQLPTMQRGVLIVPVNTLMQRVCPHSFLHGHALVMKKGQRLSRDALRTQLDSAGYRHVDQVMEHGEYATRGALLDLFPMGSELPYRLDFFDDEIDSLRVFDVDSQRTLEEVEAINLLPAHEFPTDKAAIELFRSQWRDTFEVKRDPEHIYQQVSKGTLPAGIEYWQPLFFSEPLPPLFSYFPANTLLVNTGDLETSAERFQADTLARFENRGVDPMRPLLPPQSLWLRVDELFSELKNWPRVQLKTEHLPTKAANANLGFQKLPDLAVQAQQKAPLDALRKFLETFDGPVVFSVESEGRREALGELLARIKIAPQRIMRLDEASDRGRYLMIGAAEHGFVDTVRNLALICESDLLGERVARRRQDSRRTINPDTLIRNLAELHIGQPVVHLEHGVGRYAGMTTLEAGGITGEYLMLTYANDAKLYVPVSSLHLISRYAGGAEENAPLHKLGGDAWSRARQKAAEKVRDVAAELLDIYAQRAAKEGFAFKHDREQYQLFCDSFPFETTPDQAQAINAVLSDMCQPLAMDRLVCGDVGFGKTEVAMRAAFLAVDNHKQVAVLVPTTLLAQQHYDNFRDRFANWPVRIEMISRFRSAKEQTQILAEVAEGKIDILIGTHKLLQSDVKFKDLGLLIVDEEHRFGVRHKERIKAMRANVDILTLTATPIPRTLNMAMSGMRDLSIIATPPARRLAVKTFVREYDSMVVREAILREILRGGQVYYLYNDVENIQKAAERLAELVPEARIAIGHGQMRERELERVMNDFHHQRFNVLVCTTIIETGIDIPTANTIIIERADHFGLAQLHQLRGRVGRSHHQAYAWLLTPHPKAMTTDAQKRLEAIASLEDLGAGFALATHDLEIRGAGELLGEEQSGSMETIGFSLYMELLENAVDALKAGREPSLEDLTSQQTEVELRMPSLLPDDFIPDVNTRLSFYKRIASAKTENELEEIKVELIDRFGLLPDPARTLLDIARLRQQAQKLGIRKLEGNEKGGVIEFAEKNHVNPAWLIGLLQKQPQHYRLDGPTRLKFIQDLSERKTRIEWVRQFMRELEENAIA
Kind of series: SPR. Particulars: 0.5 mM ATPgS, SPR: 30 mM Tris/HCl pH 7.6, 40 mM KCl, 5 mM MgCl2, 0.005% P20, 0.25 mM EDTA, 0.5 mM DTT, 20 C, recombinant protein.

The target of series [2] is T2, Mfd(R953A) (Escherichia coli) (UniProt P30958).
T2 sequence (looked up, limits assumed): T1 sequence (looked up, limits assumed) with R953A
As to the kind of experiment: SPR. Particulars: 0.5 mM ATPgS, 5 mM MgCl2, 0.005% P20, 0.25 mM EDTA, 0.5 mM DTT, 20 C, recombinant protein, label: 5' biotin on AS18.

Series [3] deals with T3, Mfd(E730Q) (Escherichia coli) (UniProt P30958).
T3 sequence (looked up, limits assumed): T1 sequence (looked up, limits assumed) with E730Q
Kind of series: smFRET. The note with it: ATP, high-FRET states extremely rare; smFRET: 20 mM Tris/HCl pH 8.0, 40 mM KCl, 5 mM MgCl2, 1 mM 2-mercaptoethanol; recombinant protein; label: 5' Cy3, 5' biotin and 3' Cy5 on AS18.

Series [4] addresses T2, Mfd(R953A) (Escherichia coli). As to the kind of experiment: smFRET. The note with it: 1 mM ATP, no high-FRET (ssDNA compaction), ~0.1 FRET population present; smFRET: 20 mM Tris/HCl pH 8.0, 40 mM KCl, 5 mM MgCl2, 1 mM 2-mercaptoethanol; recombinant protein; label: 5' Cy3, 5' biotin and 3' Cy5 on AS18.
The mark [5] stands for this setting: Kd in figure, label: 5' biotin on AS18.
The mark [6] stands for this setting: Kd independent of overhang length, label: 3' biotin on S18.
Setting [7] is: stronger than dT6, approaches wild type, SPR: 30 mM Tris/HCl pH 7.6, 40 mM KCl.

“TTTTTTGCCTCGCTGCCGTCGCCA / TGGCGACGGCAGCGAGGC [dT6_S18:bio_AS18]”: the binding result in series [1] (setting [5]) is listed as “binds”. For the sequence “TGGCGACGGCAGCGAGGCTTT / GCCTCGCTGCCGTCGCCA [AS18_dT3:S18_bio]”, the binding result in series [1] (setting [6]) was “binds”.

“TTTTTTTTTTTTGCCTCGCTGCCGTCGCCA / TGGCGACGGCAGCGAGGC [dT12_S18:bio_AS18]”: the binding result in series [1] (setting [5]) is recorded as “binds more weakly”; in series [2] (setting [7]), “binds”. Take “TTTGCCTCGCTGCCGTCGCCA / TGGCGACGGCAGCGAGGC [dT3_S18:bio_AS18]”: the binding result is on record as “binds” in series [1] (setting [5]) and “binds more weakly” in series [2] (affinity falls with overhang up to dT6, SPR: 30 mM Tris/HCl pH 7.6, 40 mM KCl). In the case of “TGGCGACGGCAGCGAGGCTTTTTTTTT / GCCTCGCTGCCGTCGCCA [AS18_dT9:S18_bio]”, the binding result in series [1] (setting [6]) was “binds”. In the case of “TGGCGACGGCAGCGAGGCTTTTTTTTTTTTTTT / GCCTCGCTGCCGTCGCCA [AS18_dT15:S18_bio]”, the binding result in series [1] (setting [6]) is “binds”. On the same count and under the same terms, the result for “TGGCGACGGCAGCGAGGCTTTTTTTTTTTT / GCCTCGCTGCCGTCGCCA [AS18_dT12:S18_bio]” reads “binds”. As to “TTTTTTTTTTTTTTTGCCTCGCTGCCGTCGCCA / TGGCGACGGCAGCGAGGC [dT15_S18:bio_AS18]”, in series [2] (setting [7]), the binding result is given as “binds”.

In the case of “TTTTTTTTTTTTTTTTTTTTTTTTTTTTTTTTTTTTTTTTGCCTCGCTGCCGTCGCCA / TGGCGACGGCAGCGAGGC [Cy3_dT40_S18:bio_AS18_Cy5]”, the binding result in series [3] and in series [4] was “binds more weakly” each time. Regarding “TTTTTTTTTGCCTCGCTGCCGTCGCCA / TGGCGACGGCAGCGAGGC [dT9_S18:bio_AS18]”, the results for the binding result in series [1] (setting [5]) and in series [2] (setting [7]) were “binds more weakly” and “binds”, respectively. As to “TGGCGACGGCAGCGAGGCTTTTTT / GCCTCGCTGCCGTCGCCA [AS18_dT6:S18_bio]”, the binding result in series [1] (setting [6]) was “binds”.
